doi:10.1101/2023.04.27.535981
No constants are given. Whether binding was seen depends on the method and setting. Some binding calls cover weakened binding; strength is not graded here.

Legend:
[1] = target: Cks1-Skp2-Skp1 complex (GST-Skp2-Skp1-His-Cks1) (UniProt Q13309); test: ITC
[2] = target: Cks1-Skp2-Skp1 complex (GST-Skp2-Skp1-His-Cks1) (UniProt Q13309); test: fluorescence polarisation

| binding [1] | binding [2] | Binder |
| --- | --- | --- |
| no binding |  | RQIKIWFQNRRMKWKK [cell-penetrating peptide Antp (…)] |
| binds | binds | AGSVEQTPKK (TAMRA-Ahx (amino hexanoic acid) on the N-terminus; T(phos): phosphothreonine) [TAMRA-labelled 10-residue phosphorylated p27 peptide (TAMRA-Ahx-AGSVEQT(phos)PKK)] |
